Test results: PMC6107513

The chains behind the UniProt entries cited, without tags or fusion partners. Where a name states a change or a piece, a line headed by the entry shows the natural chain unless it says otherwise.
UniProt Q99496: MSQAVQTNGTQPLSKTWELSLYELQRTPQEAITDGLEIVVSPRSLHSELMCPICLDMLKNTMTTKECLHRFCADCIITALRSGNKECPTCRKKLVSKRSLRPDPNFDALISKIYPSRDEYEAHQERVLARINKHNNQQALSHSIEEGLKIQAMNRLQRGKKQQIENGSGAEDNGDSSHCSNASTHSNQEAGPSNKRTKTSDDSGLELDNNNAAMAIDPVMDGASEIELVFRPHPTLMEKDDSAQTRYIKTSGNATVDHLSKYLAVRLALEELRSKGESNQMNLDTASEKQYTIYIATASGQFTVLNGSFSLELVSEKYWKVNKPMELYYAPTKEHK

B1: PCGF2 (protein, UniProt P35227 1-344)
chain: MHRTTRIKITELNPHLMCALCGGYFIDATTIVECLHSFCKTCIVRYLETNKYCPMCDVQVHKTRPLLSIRSDKTLQDIVYKLVPGLFKDEMKRRRDFYAAYPLTEVPNGSNEDRGEVLEQEKGALSDDEIVSLSIEFYEGARDRDEKKGPLENGDGDKEKTGVRFLRCPAAMTVMHLAKFLRNKMDVPSKYKVEVLYEDEPLKEYYTLMDIAYIYPWRRNGPLPLKYRVQPACKRLTLATVPTPSEGTNTSGASECESVSDKAPSPATLPATSSSLPSPATPSHGSPSSHGPPATHPTSPTPPSTASGATTAANGGSLNCLQTPSSTSRGRKMTVNGAPVPPLT
B2: PHC2 (protein, UniProt Q8IXK0 1-858)
chain: MENELPVPHTSSSACATSSTSGASSSSGCNNSSSGGSGRPTGPQISVYSGIPDRQTVQVIQQALHRQPSTAAQYLQQMYAAQQQHLMLQTAALQQQHLSSAQLQSLAAVQQASLVSNRQGSTSGSNVSAQAPAQSSSINLAASPAAAQLLNRAQSVNSAAASGIAQQAVLLGNTSSPALTASQAQMYLRAQMLIFTPTATVATVQPELGTGSPARPPTPAQVQNLTLRTQQTPAAAASGPTPTQPVLPSLALKPTPGGSQPLPTPAQSRNTAQASPAGAKPGIADSVMEPHKKGDGNSSVPGSMEGRAGLSRTVPAVAAHPLIAPAYAQLQPHQLLPQPSSKHLQPQFVIQQQPQPQQQQPPPQQSRPVLQAEPHPQLASVSPSVALQPSSEAHAMPLGPVTPALPLQCPTANLHKPGGSQQCHPPTPDTGPQNGHPEGVPHTPQRRFQHTSAVILQLQPASPPQQCVPDDWKEVAPGEKSVPETRSGPSPHQQAIVTAMPGGLPVPTSPNIQPSPAHETGQGIVHALTDLSSPGMTSGNGNSASSIAGTAPQNGENKPPQAIVKPQILTHVIEGFVIQEGAEPFPVGRSSLLVGNLKKKYAQGFLPEKLPQQDHTTTTDSEMEEPYLQESKEEGAPLKLKCELCGRVDFAYKFKRSKRFCSMACAKRYNVGCTKRVGLFHSDRSKLQKAGAATHNRRRASKASLPPLTKDTKKQPTGTVPLSVTAALQLTHSQEDSSRCSDNSSYEEPLSPISASSSTSRRRQGQRDLELPDMHMRDLVGMGHHFLPSEPTKWNVEDVYEFIRSLPGCQEIAEEFRAQEIDGQALLLLKEDHLMSAMNIKLGPALKIYARISMLKDS
B3: CBX4 (protein, UniProt O00257 1-560)
chain: MELPAVGEHVFAVESIEKKRIRKGRVEYLVKWRGWSPKYNTWEPEENILDPRLLIAFQNRERQEQLMGYRKRGPKPKPLVVQVPTFARRSNVLTGLQDSSTDNRAKLDLGAQGKGQGHQYELNSKKHHQYQPHSKERAGKPPPPGKSGKYYYQLNSKKHHPYQPDPKMYDLQYQGGHKEAPSPTCPDLGAKSHPPDKWAQGAGAKGYLGAVKPLAGAAGAPGKGSEKGPPNGMMPAPKEAVTGNGIGGKMKIVKNKNKNGRIVIVMSKYMENGMQAVKIKSGEVAEGEARSPSHKKRAADERHPPADRTFKKAAGAEEKKVEAPPKRREEEVSGVSDPQPQDAGSRKLSPTKEAFGEQPLQLTTKPDLLAWDPARNTHPPSHHPHPHPHHHHHHHHHHHHAVGLNLSHVRKRCLSETHGEREPCKKRLTARSISTPTCLGGSPAAERPADLPPAAALPQPEVILLDSDLDEPIDLRCVKTRSEAGEPPSSLQVKPETPASAAVAVAAAAAPTTTAEKPPAEAQDEPAESLSEFKPFFGNIIITDVTANCLTVTFKEYVTV
B4: PHC3 (protein, UniProt Q8NDX5 1-983)
chain: MDTEPNPGTSSVSTTTSSTTTTTITTSSSRMQQPQISVYSGSDRHAVQVIQQALHRPPSSAAQYLQQMYAAQQQHLMLHTAALQQQHLSSSQLQSLAAVQASLSSGRPSTSPTGSVTQQSSMSQTSINLSTSPTPAQLISRSQASSSTSGSITQQTMLLGSTSPTLTASQAQMYLRAQMLIFTPATTVAAVQSDIPVVSSSSSSSCQSAATQVQNLTLRSQKLGVLSSSQNGPPKSTSQTQSLTICHNKTTVTSSKISQRDPSPESNKKGESPSLESRSTAVTRTSSIHQLIAPASYSPIQPHSLIKHQQIPLHSPPSKVSHHQLILQQQQQQIQPITLQNSTQDPPPSQHCIPLQNHGLPPAPSNAQSQHCSPIQSHPSPLTVSPNQSQSAQQSVVVSPPPPHSPSQSPTIIIHPQALIQPHPLVSSALQPGPNLQQSTANQVQATAQLNLPSHLPLPASPVVHIGPVQQSALVSPGQQIVSPSHQQYSSLQSSPIPIASPPQMSTSPPAQIPPLPLQSMQSLQVQPEILSQGQVLVQNALVSEEELPAAEALVQLPFQTLPPPQTVAVNLQVQPPAPVDPPVVYQVEDVCEEEMPEESDECVRMDRTPPPPTLSPAAITVGRGEDLTSEHPLLEQVELPAVASVSASVIKSPSDPSHVSVPPPPLLLPAATTRSNSTSMHSSIPSIENKPPQAIVKPQILTHVIEGFVIQEGLEPFPVSRSSLLIEQPVKKRPLLDNQVINSVCVQPELQNNTKHADNSSDTEMEDMIAEETLEEMDSELLKCEFCGKMGYANEFLRSKRFCTMSCAKRYNVSCSKKFALSRWNRKPDNQSLGHRGRRPSGPDGAAREHILRQLPITYPSAEEDLASHEDSVPSAMTTRLRRQSERERERELRDVRIRKMPENSDLLPVAQTEPSIWTVDDVWAFIHSLPGCQDIADEFRAQEIDGQALLLLKEDHLMSAMNIKLGPALKICARINSLKES

target: RING1B (encoded by RNF2) (human (endogenous in T47D and MDA-MB-231)) (UniProt Q99496); experiment: affinity purification with mass spectrometry; endogenous RING1B captured from MDA-MB-231 clarified cell extract (400 ul) on magnetic medium coupled to anti-RING1B antibody; 50 mM Tris pH 8.0, 300 mM NaCl, 0.2% NP-40; 1 h at 4 °C; mouse IgG control; label-free quantitative LC-MS/MS, three biological replicates

Row | Binder | binding
1 | B1 | binds
2 | B2 | binds

target: RING1B (encoded by RNF2) (human (endogenous in T47D and MDA-MB-231)) (UniProt Q99496); experiment: affinity purification with mass spectrometry; endogenous RING1B captured from T47D clarified cell extract (200 ul) on magnetic medium coupled to anti-RING1B antibody; 50 mM Tris pH 8.0, 300 mM NaCl, 0.2% NP-40; 1 h at 4 °C; mouse IgG control; label-free quantitative LC-MS/MS, three biological replicates

Row | Binder | binding
3 | B3 | binds
4 | B1 | binds
5 | B2 | binds
6 | B4 | binds

No constants are given. Whether binding was seen depends on the method and setting. Binding seen in cells or lysates may run through a third protein. These calls come from enrichment with a bait or labelling near it, and not all partners need be listed.
